Assay results as given in US20250114467A1 (SHANGHAI FUDAN ZHANGJIANG BIO PHARMACEUTICAL, published 2025).
No constants are given. Whether binding was seen depends on the method and setting. Some binding calls cover weakened binding; strength is not graded here.

Protein sequences, listed by entry. Tags and fused reporters are not part of them. Lines headed by an entry give the natural chain unless they say otherwise; changes in a name come on top. Chains listed by the source or under a name are the forms on record and can include a tag or linker. Residues count along the entry.
UniProt Q9NYJ7: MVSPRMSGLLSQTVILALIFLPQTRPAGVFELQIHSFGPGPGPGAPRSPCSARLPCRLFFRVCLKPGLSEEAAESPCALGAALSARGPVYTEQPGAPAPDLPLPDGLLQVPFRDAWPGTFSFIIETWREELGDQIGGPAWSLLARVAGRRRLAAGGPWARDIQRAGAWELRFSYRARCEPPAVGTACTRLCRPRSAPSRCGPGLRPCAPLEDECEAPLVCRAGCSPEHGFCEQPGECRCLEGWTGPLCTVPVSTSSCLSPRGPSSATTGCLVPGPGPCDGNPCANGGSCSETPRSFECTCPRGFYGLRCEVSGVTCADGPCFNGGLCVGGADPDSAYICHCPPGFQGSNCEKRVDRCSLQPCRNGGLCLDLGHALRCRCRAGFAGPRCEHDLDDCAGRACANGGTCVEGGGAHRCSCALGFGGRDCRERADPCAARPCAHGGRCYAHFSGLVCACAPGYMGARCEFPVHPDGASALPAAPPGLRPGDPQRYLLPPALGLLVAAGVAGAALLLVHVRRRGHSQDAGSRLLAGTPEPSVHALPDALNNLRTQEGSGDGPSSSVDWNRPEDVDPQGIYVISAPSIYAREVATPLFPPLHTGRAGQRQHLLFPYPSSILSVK
human DLL3, His tag (acrobiosystems, DL3-H52H4): residues 27-492 of Q9NYJ7
recombinant DLL3 protein (purchased from ACRO, DL3-H5255): residues 27-479 of Q9NYJ7
UniProt O88516, residues 33-592: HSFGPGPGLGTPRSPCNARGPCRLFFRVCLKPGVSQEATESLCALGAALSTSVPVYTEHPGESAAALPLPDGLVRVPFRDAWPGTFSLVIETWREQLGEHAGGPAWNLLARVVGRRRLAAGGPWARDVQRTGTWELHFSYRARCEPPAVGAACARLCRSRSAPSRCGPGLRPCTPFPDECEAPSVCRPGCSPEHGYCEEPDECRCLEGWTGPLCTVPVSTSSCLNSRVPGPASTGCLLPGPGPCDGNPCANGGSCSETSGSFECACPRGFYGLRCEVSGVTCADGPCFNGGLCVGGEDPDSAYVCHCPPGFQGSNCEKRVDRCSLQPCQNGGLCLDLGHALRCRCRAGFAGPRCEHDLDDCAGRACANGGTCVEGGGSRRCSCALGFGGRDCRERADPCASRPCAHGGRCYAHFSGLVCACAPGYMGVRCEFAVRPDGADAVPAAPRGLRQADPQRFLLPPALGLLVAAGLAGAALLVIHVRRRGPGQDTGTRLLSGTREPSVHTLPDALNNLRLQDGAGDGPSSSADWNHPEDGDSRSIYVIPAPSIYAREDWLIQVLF
UniProt O00548, residues 18-540: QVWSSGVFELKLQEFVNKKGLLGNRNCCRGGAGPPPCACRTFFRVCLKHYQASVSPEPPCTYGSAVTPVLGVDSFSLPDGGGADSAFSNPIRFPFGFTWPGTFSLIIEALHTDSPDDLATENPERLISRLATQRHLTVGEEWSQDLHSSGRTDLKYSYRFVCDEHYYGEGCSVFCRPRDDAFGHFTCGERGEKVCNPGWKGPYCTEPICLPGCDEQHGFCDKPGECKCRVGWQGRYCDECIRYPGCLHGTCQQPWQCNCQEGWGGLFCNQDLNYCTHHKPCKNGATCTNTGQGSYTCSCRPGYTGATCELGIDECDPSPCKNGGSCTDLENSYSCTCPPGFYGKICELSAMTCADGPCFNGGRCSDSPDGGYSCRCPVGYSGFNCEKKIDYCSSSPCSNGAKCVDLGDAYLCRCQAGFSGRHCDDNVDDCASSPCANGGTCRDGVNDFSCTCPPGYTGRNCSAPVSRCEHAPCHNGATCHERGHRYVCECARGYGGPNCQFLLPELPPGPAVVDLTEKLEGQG

What was measured:
[1] = biological target: recombinant DLL3 protein (purchased from ACRO, DL3-H5255) (human) (UniProt Q9NYJ7); assay: ELISA, plate-coated human DLL3 protein
[2] = biological target: recombinant DLL3 protein (purchased from ACRO, DL3-H5255) (human) (UniProt Q9NYJ7); assay: ELISA on plate-coated human DLL3 protein (1 µg/ml, method of Example 3-1), OD 450 nm [left panel]
[3] = biological target: mouse DLL3 on overexpressing cells (plasmid pCMV3-mDLL3, MG58052-UT) (mouse) (UniProt O88516); assay: flow cytometry on cells overexpressing mouse DLL3
[4] = biological target: mouse DLL3 on overexpressing cells (plasmid pCMV3-mDLL3, MG58052-UT) (mouse) (UniProt O88516); assay: flow cytometry on cells overexpressing mouse DLL3, APC goat anti-human IgG, MFI [left panel]
[5] = biological target: recombinant DLL3 protein (purchased from ACRO, DL3-H5255) (human) (UniProt Q9NYJ7); assay: ELISA on plate-coated human DLL3 protein (1 µg/ml, method of Example 3-1), OD 450 nm [right panel]
[6] = biological target: human DLL3, His tag (acrobiosystems, DL3-H52H4) (human) (UniProt Q9NYJ7); assay: BLI (Octet 96e)
[7] = biological target: human DLL1 (purchased from Acro, DL1-H52H8) (human) (UniProt O00548); assay: ELISA, plate-coated hDLL1 1 µg/ml
[8] = biological target: human DLL1 (purchased from Acro, DL1-H52H8) (human) (UniProt O00548); assay: ELISA on plate-coated human DLL1 protein (1 µg/ml), HRP goat anti-human secondary, OD 450 nm [left panel]
[9] = biological target: recombinant DLL3 protein (purchased from ACRO, DL3-H5255) (human) (UniProt Q9NYJ7); assay: ELISA on plate-coated human DLL3 protein (1 µg/ml, method of Example 3-1), OD 450 nm [left and right panel]

Measured: binding

B1: ch32E8 (antibody, human IgG1, kappa, V domains shown)
VH: QVTLKESGPGILQPSQTLSLTCSFSGFSLSTSGMGVGWIRQPSGKGLEWLALIWWDDVKRYHPALKSRLTISKDTSSSQVFLKIASVDTADTATYYCARIAEVTGQVGLHYAMDYWGQGTSVTVSS
VL: QTVLTQSPAIMSASLGERVTMTCTASSSVNSSSLHWYQQKPGSSPKLWIYTTSNLASGVPARFSGSGSGTSYSLTISSMEAEDAATYYCHQFHRSPFTFGSGTKLEIKR
notes: Chimeric: murine variable regions on human IgG1 heavy and kappa light constant regions; also called chimeric antibody 32E8
binds: [1] | [2]

B2: ch26D9 (antibody, human IgG1, kappa, V domains shown)
VH: EVQLQQSGPELVKPGASVKMSCKASGYTFTTYVMHWVKQKPGQGLEWIGYINPYNDDTNYNEKFKGKATLTSDKSSSTAYMELSSLTSEDSAVYYCARWGLTGTGDYYAMDYWGQGTSVTVSS
VL: DIQMTQSPASLSASVGETVTITCRASGNVHNYLAWYQQKQGRSPQVLVYNAKTLADGVPSRFSGSGSGTQYSLKINSLLPEDFGSYYCQHFWTTPWTFGGGTTLEIKR
notes: Chimeric: murine variable regions on human IgG1 heavy and kappa light constant regions; also called chimeric antibody 26D9
binds: [1] | [3] | [4] | [5]

B3: ch19C7 (antibody, human IgG1, kappa, V domains shown)
VH: EVQLQQSGPELVRPGASVRMSCKASGYTFTYYVMHWVKQKPGLGLEWIGYINPYNDGTEYNEKFKGKATLTSDKSSSTAFMELSSLTSEDSAVYYCARWLLREYAMDYWGQGTSVTVSS
VL: DIQMTQSPASLSASVGETVTITCRASDNIHNYLAWYQQKQGKSPQLLVYNAKTLADGVPSRFSGSGSGTQYSLKINSLQPEDFGSYYCQHFWSTPWTFGGGTKLEIKR
notes: Chimeric: murine variable regions on human IgG1 heavy and kappa light constant regions; also called chimeric antibody 19C7
binds: [1] | [3] | [4] | [5]

B4: ch6A2 (antibody, human IgG1, kappa, V domains shown)
VH: EVQLQQSGPELVKPGASVKISCKASGYTFTDYNMNWVKQSQGKSLEWIGYIYPYNGGTGYNQKFKTKATLTVDNSSSTAYMEFRSLTSEDSAVYYCARSDPYYTMDYWGQGTSVTVSS
VL: IIVMTQTPKFLLVSAGDRVTISCKASQSVNNDVAWYQQKPGQSPKLLIYFTSNRFTGVPDRFTGSGYGTDFTFTISSVQAEDLAVYFCQQDHNSPYTFGGGTKLEIKR
notes: Chimeric: murine variable regions on human IgG1 heavy and kappa light constant regions; also called chimeric antibody 6A2
binds: [1] | [3] | [4] | [5]

B5: ch13C2 (antibody, human IgG1, kappa, V domains shown)
VH: EVKLVESGGGLVKPGGSLKLSCAASGFAFSSYDMSWVRQTPEKRLEWVATISSGGSYTYYPDSVKGRFTISRDNGRNTLYLQMSSLRSEDTALYYCASPLLGLRFAYWGQGTLVTVSA
VL: QAVVTQESALTTSPGETVTLTCRSSTGAVTTINYANWVQEKPDHLFTGLIGGTNNRAPGVPARFSGSLIGDKAALTITGAQTEDEAIYFCALYYSNHWVFGGGTKLTVLR
notes: Chimeric: murine variable regions on human IgG1 heavy and kappa light constant regions; also called chimeric antibody 13C2
binds: [1] | [5]

B6: ch10B1 (antibody, human IgG1, kappa, V domains shown)
VH: DVKLVESGGGLVKPGGSLKLSCAASGFTFSNYTISWVRQTPEKRLEWVATFSSGGSYTYYSDSVKGRFTISRDNAKNTLYLQMSSLKSEDTAMYYCSRDRRSDGYYHLYAMDYWGQGTSVTVSS
VL: DIQMTQTTSSLSASLGDRVTISCRASQDISHYLNWYQQKPDGTVKLLIYYTSRLHSGVPSRFSGSGSGTAYSLTISNLEQEDIATYFCQQGYTLPLTFGAGTKLELKR
notes: Chimeric: murine variable regions on human IgG1 heavy and kappa light constant regions; also called chimeric antibody 10B1
binds: [1] | [3] | [4] | [5]

B7: ch1A5 (antibody, human IgG1, kappa, V domains shown)
VH: EVQLQQSGPELVKPGASVKISCKTSGYTFTESAMHWVKQSHGKSLEWIGGINPNNGGISYSQKFKGKATLTVDKSSSTAYMELRSLTSEDSAVYYCGSSYYRDYFDYWGQGTTLTVSS
VL: NIVMTQSPESMSMSVGERVTLSCKASENVGTYVSWYQQKPDQSPKLLIYGASNRYTGVPDRFTGSGSATHFTLTISSVQAEDLADYHCGQSYSYPLTFGAGTKLELKR
notes: Chimeric: murine variable regions on human IgG1 heavy and kappa light constant regions, expressed in 293F cells; also called chimeric antibody 1A5
binds: [1] | [3] | [4] | [2]

B8: ch33F11 (antibody, human IgG1, kappa, V domains shown)
VH: EVQLQQSGPELVKPGASVKISCKTSGYTFTENTMHWVKQSHGESLEWIGGINPRNGVTSYNQKFKGKATLTVDKSSSTAYMELRSLTSEDSAVYYCTNTYYRDYFDYWGQGTTLTVSS
VL: NIVMTQSPKSMSMSVGERVTLSCKASENVGTYVSWYQQKPDQSPKLLIYGASNRYTGVPDRFTGSGSPTDFTLTISRMQAEDLAHYYCGQTYTYPLTFGAGTKLELKR
notes: Chimeric: murine variable regions on human IgG1 heavy and kappa light constant regions; also called chimeric antibody 33F11
binds: [1] | [3] | [4] | [2]

B9: ch23G2 (antibody, human IgG1, kappa, V domains shown)
VH: QVQLQQSGPELVRPGVSVKISCKGSGYTFTDYAIHWVKQSRAKSPEWIGIVSTDSGKTSFNQKFKGKATMTVDKSSTTAYMELVRLTSEDSAIYYCARNPYYDYDGYAMDYWGQGTSVTVSS
VL: DIQMTQSSSYLSVSLGGRVTIICKASDHINNWLAWYQQKPGNAPRLIISGATSLETGVPSRFSGSGSGKDYTLSITSLQTEDVATYYCQQYWSIPYTFGGGTKLEIKR
notes: Chimeric: murine variable regions on human IgG1 heavy and kappa light constant regions; also called chimeric antibody 23G2
binds: [1] | [3] | [4] | [5]

B10: ch4H7 (antibody, human IgG1, kappa, V domains shown)
VH: EVQLQQSGAELVRPGALVKLSCKASGFNFKDYYIHWVKQRPELGLEWIGWIDPENGNAIYDPKFQDKASITADTSSNTAYLHLSSLTSEGTAVYYCASEDAYYPFAYWGQGTLVTVSA
VL: DIVMSQSPSSLAVSVGEKVTMRCKSSQSLLYSSNQKNYLAWYQQKPGQSPKLLIYWASTRESGVPDRFTGSGSGTDFTLTISSVKAEDLAVYFCQQYYSYRTFGGGTKLEIKR
notes: Chimeric: murine variable regions on human IgG1 heavy and kappa light constant regions; also called chimeric antibody 4H7
not listed: [5] | [9]
binds: all other assays above

B11: FDA031 (antibody, human IgG1, kappa, V domains shown)
VH: QVQLVQSGAEVKKPGASVKVSCKASGYTFTRYWIHWIRQAPGQGLEWMGYINPTTVYTEFNQNFKDRVTMTRDTSTSTVYMELSSLRSEDTAVYYCARGGSNFFDYWGQGTTVTVSS
VL: AIQLTQSPSSLSASVGDRVTITCRASENIYYNLAWYQQKPGKAPKLLIYTANSLEDGVPSRFSGSGSGTDFTLTISSLQPEDFATYFCKQAYDVPPTFGGGTKLEIKR
notes: also called anti-DLL3 antibody FDA031
binds: [4] | [2]

B12: ch15G2 (antibody, human IgG1, kappa, V domains shown)
VH: EVQLQQSGPELEKPGASVRISCKASGYSFTDYNMHWVKQSNGKSLEWIGNIDPYYGGTNYNQKFEGKATLTVDKSSSTAYMQLKSLTSEDSAVYYCARGGNNYGDYWGQGTTLTVSS
VL: DIQMTQSPASLAASVGETVTITCRASENIYYSLAWYQQKQGKSPQLLIFNANSLEDGVPSRFSGSGSGTQYSMKINSMQPEDTATYFCKQAYDVPWTFGGGTKLEIKR
notes: Chimeric: murine variable regions on human IgG1 heavy and kappa light constant regions; also called chimeric antibody 15G2
binds: [1] | [5]

B13: FDA027 (antibody, human IgG1, kappa, V domains shown)
VH: QVQLVQSGAEVKKPGASVKVSCKASGYTFTNYGMNWVRQAPGQGLEWMGWINTYTGEPTYADDFKGRVTMTTDTSTSTAYMELRSLRSDDTAVYYCARIGDSSPSDYWGQGTLVTVSS
VL: EIVMTQSPATLSVSPGERATLSCKASQSVSNDVVWYQQKPGQAPRLLIYYASNRYTGIPARFSGSGSGTEFTLTISSLQSEDFAVYYCQQDYTSPWTFGQGTKLEIKR
notes: also called anti-DLL3 antibody FDA027
binds: [4] | [9]

B14: ch36H10 (antibody, human IgG1, kappa, V domains shown)
VH: EVQFQQSGPELVKPGASVKISCKASGYTFTDYNIHWVRQSQGKSLEWIGLIYPFNGGIVYNQKFKSKATLTVDNSSTSAYMELRSLSSEDSAVYFCARLNWEGYWGQGSTLIVSS
VL: DIKMTQSPSSIYAFLGERVTITCKASQDINSYLSWFQQKPGKSPKTLIYRANRLVGGVPSRFSGSGSGQDYSLTISSLEYEDVGDYYCLQYAEFPYTFGGGTKLEIKR
notes: Chimeric: murine variable regions on human IgG1 heavy and kappa light constant regions; also called chimeric antibody 36H10
binds: [1] | [3] | [4] | [5]
